According to PubChem BioAssay AID493014 (National Center for Advancing Translational Sciences (NCATS), 2011):
The list shows a part of the results. Shown are side measurements of this screen, not its main read-out; they come without a call. The list favours compounds with an active or inconclusive main result. Words in brackets tell the shape of the fitted curve; partial curves, single points and poor fits give uncertain potencies.

Assay: qHTS Assay to Find Inhibitors of Chronic Active B-Cell Receptor Signaling
Details: ABC-DLBCL IkBa-CBG/CBR reporter, luminescence ratio (green luciferase fused to IkBa over red control in TMD8 lymphoma cells), 4 h
How it was run: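 Cell line TMD8 (human ABC DLBCL), stably expressing tet-inducible CBG68-IkBa fusion and CBR; IMDM/0.5% FBS; cpd up to 46 uM; dox induction, 4 h, 37C/5% CO2; dual luminescence; green/red ratio; MG132 control.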

[1] = measured here: CBR red luminescence, cell number
[2] = measured here: IkBa-CBG green luminescence

SMILES	AC50 [1]	AC50 [2]
CCOc1cccc2sc(N3CCN(C(=O)C(C)(C)C)CC3)nc12	2.24 µM [rising, full curve]	
CCOC(=O)C1CCN(S(=O)(=O)c2ccc(NC(=O)OC)cc2)CC1	5.8 µM [rising, single point]	
CN(C)C(CNC(C(=O)Nc1ccc([N+](=O)[O-])cc1Br)c1ccccc1)c1ccccc1 (configuration not stated)	15.8 µM [falling, single point]	
Cc1cccc(C)c1-n1nnnc1C(C)(C)N1CCN(N=O)CC1	7.94 µM [rising, partial curve, poor fit]	
Cc1cc(OCC(=O)O/N=C(\N)c2ccccc2)ccc1Cl	0.058 µM [rising, full curve, poor fit]	
O=C(c1ccccc1)N1N=C(c2ccccc2)CC1c1ccccc1O (configuration not stated)	20 µM [falling, partial curve, poor fit]	
Cc1cccc(C(=O)NC(=S)N2CCN(C)CC2)c1	14.1 µM [rising, single point]	
O=C(c1cn(-c2ccccc2)nc1-c1cccc([N+](=O)[O-])c1)N1CCCCC1	3.55 µM [rising, single point]	
O=C(Nc1nnc(S(=O)(=O)N2CCCCCC2)s1)c1ccccc1F	0.562 µM [rising, full curve, poor fit]	
CCOc1ccc(NC(=O)CN2CCN(CC(=O)Nc3ccccc3OC)CC2)cc1	12.6 µM [falling, partial curve, poor fit]	
COc1cccc(NC(=O)CN(C)C(=O)c2ccc(S(=O)(=O)Nc3ccccc3C)cc2)c1	29.1 µM [rising, single point]	
Cc1ccccc1-n1c(=O)n(Cc2ccco2)c(=O)c2[nH]cnc21	20 µM [rising, partial curve, poor fit]	14.1 µM [falling, partial curve, poor fit]
COC(=O)c1cccc(NC(=O)c2ccc3c(c2)C(=O)N(Cc2cccnc2)C3=O)c1C	7.08 µM [falling, partial curve]	
COc1ccc(C2=C(Nc3ccc(C)cc3)c3ccccc3C2=O)cc1	1.64 µM [rising, full curve, poor fit]	
COc1cccc(OC)c1C(=O)OCC(=O)N1CCC(Cc2ccccc2)CC1	29.1 µM [rising, single point]	
Nc1c(C(=O)Nc2nccs2)sc2nc(-c3cccs3)cc(C(F)(F)F)c12	3.26 µM [falling, partial curve, poor fit]	
COc1cccc(C(=O)Nc2ccc(NC(=O)C3CCCCC3C(=O)O)cc2)c1 (configuration not stated)	20 µM [falling, single point]	
O=C(N/N=C\c1ccc(-c2ccc(Cl)c(Cl)c2)o1)C(=O)N1CCCC1	35.5 µM [falling, single point]	
Cc1ccc(-n2c(SCC(=O)OC(C)C)nnc2-c2ccncc2)cc1	29.1 µM [falling, single point]	
O=C(/C=C/c1cccs1)Nc1sc2c(c1C(=O)O)CCCC2	0.794 µM [falling, full curve]	
O=C(N/N=C(\Cc1ncc[nH]1)c1ccccc1)c1cccnc1	8.91 µM [falling, partial curve, poor fit]	

SMILES	AC50 [1]	AC50 [2]
CCCOc1ccc(C2c3c(oc4ccccc4c3=O)C(=O)N2CCCN2CCOCC2)cc1 (configuration not stated)	2.31 µM [rising, partial curve, poor fit]	
CC(C(=O)Nc1ccccc1-c1ccccc1)N(C)Cc1nc2ccccc2c(=O)[nH]1 (configuration not stated)	0.794 µM [rising, full curve, poor fit]	
NNc1nc(-c2ccccc2)c2ccccc2n1	6.31 µM [falling, partial curve]	12.6 µM [rising, partial curve, poor fit]
O=C(CCCN1C(=O)S/C(=C\C=C\c2ccccc2)C1=O)Nc1ccc(C(=O)O)cc1	1.12 µM [falling, full curve]	
O=C(Cc1ccc(Cl)cc1)Nc1cccc(C(=O)Nc2ccccc2C(=O)O)c1	22.4 µM [falling, single point]	
Cc1ccc(OCC(=O)NC2CCCC(C)C2C)c([N+](=O)[O-])n1 (configuration not stated)	2.31 µM [rising, full curve, poor fit]	
CCc1c(C)nc2[nH]nc(-c3ccccc3C)n2c1=O	8.2 µM [falling, partial curve]	
COc1cc(/C=N/NC(=O)c2ccc(F)cc2)ccc1OC(=O)c1ccco1	25.9 µM [falling, partial curve, poor fit]	
O=C(Nc1ncccc1O)c1cc2ccccc2o1	4.11 µM [falling, full curve]	8.2 µM [falling, partial curve, poor fit]
CCOC(=O)C1=C(COC(=O)/C=C/c2ccc([N+](=O)[O-])cc2)NC(=O)NC1C (configuration not stated)	2.59 µM [falling, single point]	
O=C(N/N=C/c1ccccc1Cl)c1n[nH]c2c1CCCC2	0.58 µM [falling, full curve]	
Fc1ccc(N=C2NN=C(c3cc(F)ccc3F)CS2)cc1	16.4 µM [falling, partial curve, poor fit]	
C=C(C)Cn1c(SCC(=O)NCc2ccco2)nc2sc3c(c2c1=O)CCC3	12.6 µM [falling, single point]	
CC1=C(C)CC(C(=O)NNC(=O)c2ccccc2)C(C(=O)O)C1 (configuration not stated)	35.5 µM [falling, single point]	
Cc1ccc(CNc2nc3ccccc3s2)s1	32.6 µM [falling, single point]	
COc1cc([N+](=O)[O-])ccc1NC(=O)Nc1nc2c(s1)CCCC2	0.092 µM [rising, full curve, poor fit]	
O=S(=O)(NCCOc1cccc2cccnc12)c1ccc(F)cc1	7.31 µM [rising, partial curve]	
O=C(Nc1nc2cc3c(cc2s1)OCCO3)c1ccc([N+](=O)[O-])o1	2.82 µM [falling, full curve]	
COc1ccc(-c2cn3c(C)c(C(=O)N4CCc5ccccc5C4)sc3n2)cc1	22.4 µM [falling, single point]	
N#C/C(C(=O)c1ccccc1)=C1/SC=C(N)N1c1ccccc1	10 µM [falling, partial curve, poor fit]	
CC(=O)N1CCN(C(=O)c2cccc(S(=O)(=O)Nc3ccc(C)cc3)c2)CC1	10.3 µM [falling, single point]	6.51 µM [falling, partial curve, poor fit]

A draw from above in order of length of the SMILES, rising.
SMILES	AC50 [1]	AC50 [2]
COc1cc(/C=N/NC(=O)c2ccc(F)cc2)ccc1OC(=O)c1ccco1	25.9 µM [falling, partial curve, poor fit]	
O=C(Nc1nc2cc3c(cc2s1)OCCO3)c1ccc([N+](=O)[O-])o1	2.82 µM [falling, full curve]	
CCCOc1ccc(C2c3c(oc4ccccc4c3=O)C(=O)N2CCCN2CCOCC2)cc1 (configuration not stated)	2.31 µM [rising, partial curve, poor fit]	

(list continues)

SMILES	AC50 [1]	AC50 [2]
Cc1ccc(S(=O)(=O)c2nc(S(C)(=O)=O)sc2N2CCC(O)CC2)cc1	35.5 µM [rising, partial curve, poor fit]	
Cc1ccc(-c2noc(-c3cc4ccccc4oc3=O)n2)cc1	35.5 µM [falling, single point]	
CCN1C(=O)/C(=C2\SC(=S)N(NC(=O)c3cccnc3)C2=O)c2ccccc21	10 µM [falling, partial curve, poor fit]	
CCN(CC)S(=O)(=O)c1ccc2c(c1)N(CC(=O)Nc1cccnc1Cl)C(=O)CO2	5.62 µM [rising, full curve]	
Cc1cc(NCc2ccccc2)nc2ccccc12	8.2 µM [rising, partial curve]	
NC(=O)C1=C[C@@H](c2ccc(Br)cc2)C[C@@H](OCCCCO)O1	3.55 µM [rising, single point]	
Cc1ccc(/C=N/NC(=O)c2ccoc2C)o1	1.64 µM [falling, partial curve, poor fit]	
CCc1cc(C(=O)N/N=C/c2ccc(O)cc2O)c2ccccc2n1	10 µM [falling, single point]	
O=c1oc(Nc2cccc(Cl)c2)nc2ccccc12	3.16 µM [falling, full curve]	
CCOc1ccc(NC(=O)N2CCC(n3nnc4cc(C)ccc43)CC2)cc1	8.2 µM [rising, partial curve]	
CCC(CC)C(=O)Nc1ccc(C)cc1O	6.31 µM [rising, partial curve, poor fit]	
CS(=O)(=O)c1cccc(-c2csc(N3CCC(C(N)=O)CC3)n2)c1	4.61 µM [rising, full curve, poor fit]	
O=C(CCc1ccccc1O)N/N=C/c1ccc(Sc2cccc3cccnc23)o1	29.1 µM [falling, single point]	
O=C(O)C1CC(=O)N(c2ccc(OCc3c(F)cccc3Cl)cc2)C1 (configuration not stated)	5.17 µM [falling, partial curve, poor fit]	
CCc1[nH]c(=S)c(C#N)c2c1CCCC2	5.8 µM [rising, full curve, poor fit]	
COc1ccc(OC(=O)c2ccc(Cl)cc2)c(C(C)=O)c1	4.47 µM [rising, partial curve]	
O=C(NCc1ccc(-n2cccc2)cc1)c1cccc(F)c1	12.6 µM [rising, partial curve, poor fit]	
Oc1ccc2ccccc2c1C=Nc1ccccc1-c1nc2ccccc2[nH]1	29.1 µM [falling, single point]	
CC1Cc2ccccc2N1C(=O)c1cnc2n(c1=O)CCS2 (configuration not stated)	13 µM [falling, partial curve]	
COc1cccc(NC(=O)Nc2nnc(CC(=O)NCc3ccccc3)s2)c1	25.1 µM [falling, single point]	
Cc1c(C(=O)N2CCCCC2)oc2ccc(S(=O)(=O)N3CC(C)CC(C)C3)cc12 (configuration not stated)	0.891 µM [falling, full curve]	
